{"sequences": {"note": "The chains behind the UniProt entries cited, without tags or fusion partners. Where a name states a change or a piece, a line headed by the entry shows the natural chain unless it says otherwise.", "UniProt P04629": "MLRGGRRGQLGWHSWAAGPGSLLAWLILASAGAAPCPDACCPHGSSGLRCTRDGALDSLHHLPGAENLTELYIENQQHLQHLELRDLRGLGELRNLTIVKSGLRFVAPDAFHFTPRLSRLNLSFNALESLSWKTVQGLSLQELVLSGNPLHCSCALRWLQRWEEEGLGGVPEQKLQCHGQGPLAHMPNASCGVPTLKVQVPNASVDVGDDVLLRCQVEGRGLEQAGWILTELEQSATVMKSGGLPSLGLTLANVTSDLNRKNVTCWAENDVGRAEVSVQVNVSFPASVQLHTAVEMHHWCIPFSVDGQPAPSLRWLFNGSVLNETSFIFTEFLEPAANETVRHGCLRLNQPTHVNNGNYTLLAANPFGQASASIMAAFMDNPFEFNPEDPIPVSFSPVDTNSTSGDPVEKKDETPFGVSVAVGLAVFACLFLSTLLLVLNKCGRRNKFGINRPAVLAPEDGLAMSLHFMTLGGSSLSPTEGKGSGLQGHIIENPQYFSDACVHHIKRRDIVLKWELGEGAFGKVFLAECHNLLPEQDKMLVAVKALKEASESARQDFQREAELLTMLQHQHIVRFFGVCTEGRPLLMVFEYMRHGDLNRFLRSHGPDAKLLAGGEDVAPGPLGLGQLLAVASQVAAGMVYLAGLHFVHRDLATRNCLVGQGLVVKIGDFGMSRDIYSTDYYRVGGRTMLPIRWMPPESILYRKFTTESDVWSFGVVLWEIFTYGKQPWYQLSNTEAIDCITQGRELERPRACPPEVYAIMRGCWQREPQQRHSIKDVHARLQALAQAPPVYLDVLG"}, "source": "patent US20110145941A1", "about": "(LAY LINE GENOMICS S P A, published 2011)", "binders": {"B1": {"name": "BXhVH2VL7 (antibody, human IgG1, V domains shown)", "VH": "EVQLLESGGGLVQPGGSLRLSCAASGFTFSTYTMSWVRQTPGKRLEWVAYISKGGGSTYYPDTVKGRFTISRDNSKNTLYLQMNSLRAEDTAVYYCAKGAMYGNDFFYPMDYWGQGTTVTVSS", "VL": "QIVLTQSPATLSLSPGERATLSCSASSSVSYMHWYQQKPGQSPRLLIYTTSNLASGIPSRFSGSGSGTFYTLTISSLEPEDAADYYCHQWSSYPWTFGGGTKLEIK", "notes": "Human IgG1 constant regions (IgG1 expression vectors); COS-7 supernatant; also called hVH2/hVL7"}, "B2": {"name": "BXhVH1VL1 (antibody, human IgG1, V domains shown)", "VH": "B1 VH with Q3K, R44G", "VL": "B1 VL with Q1E, S42A, S59A, F69D, Y70F, A82F, D84V, G99Q", "notes": "Human IgG1 constant regions (IgG1 expression vectors); COS-7 supernatant; also called hVH1/hVL1"}, "B3": {"name": "BXhVH1VL2 (antibody, human IgG1, V domains shown)", "VH": "B1 VH with Q3K, R44G", "VL": "B1 VL with Q1E, F69D, Y70F, G99Q", "notes": "Human IgG1 constant regions (IgG1 expression vectors); COS-7 supernatant; also called hVH1/hVL2"}, "B4": {"name": "BXhVH1VL3 (antibody, human IgG1, V domains shown)", "VH": "B1 VH with Q3K, R44G", "VL": "B1 VL with A82F, D84V", "notes": "Human IgG1 constant regions (IgG1 expression vectors); COS-7 supernatant; also called hVH1/hVL3"}, "B5": {"name": "BXhVH1VL4 (antibody, human IgG1, V domains shown)", "VH": "B1 VH with Q3K, R44G", "VL": "B1 VL with F69D, Y70F", "notes": "Human IgG1 constant regions (IgG1 expression vectors); COS-7 supernatant; also called hVH1/hVL4"}, "B6": {"name": "BXhVH1VL5 (antibody, human IgG1, V domains shown)", "VH": "B1 VH with Q3K, R44G", "VL": "B1 VL with F69D, G99Q", "notes": "Human IgG1 constant regions (IgG1 expression vectors); COS-7 supernatant; also called hVH1/hVL5"}, "B7": {"name": "BXhVH1VL6 (antibody, human IgG1, V domains shown)", "VH": "B1 VH with Q3K, R44G", "VL": "B1 VL with Q1E, R18E", "notes": "Human IgG1 constant regions (IgG1 expression vectors); COS-7 supernatant; also called hVH1/hVL6"}, "B8": {"name": "BXhVH1VL7 (antibody, human IgG1, V domains shown)", "VH": "B1 VH with Q3K, R44G", "VL": "B1 VL", "notes": "Human IgG1 constant regions (IgG1 expression vectors); COS-7 supernatant; also called hVH1/hVL7"}, "B9": {"name": "BXhVH1VL8 (antibody, human IgG1, V domains shown)", "VH": "B1 VH with Q3K, R44G", "VL": "B1 VL with R18E, P39S, Q41T", "notes": "Human IgG1 constant regions (IgG1 expression vectors); COS-7 supernatant; also called hVH1/hVL8"}, "B10": {"name": "BXhVH2VL1 (antibody, human IgG1, V domains shown)", "VH": "B1 VH", "VL": "B1 VL with Q1E, S42A, S59A, F69D, Y70F, A82F, D84V, G99Q", "notes": "Human IgG1 constant regions (IgG1 expression vectors); COS-7 supernatant; also called hVH2/hVL1"}, "B11": {"name": "BXhVH2VL2 (antibody, human IgG1, V domains shown)", "VH": "B1 VH", "VL": "B1 VL with Q1E, F69D, Y70F, G99Q", "notes": "Human IgG1 constant regions (IgG1 expression vectors); COS-7 supernatant; also called hVH2/hVL2"}, "B12": {"name": "BXhVH2VL3 (antibody, human IgG1, V domains shown)", "VH": "B1 VH", "VL": "B1 VL with A82F, D84V", "notes": "Human IgG1 constant regions (IgG1 expression vectors); COS-7 supernatant; also called hVH2/hVL3"}, "B13": {"name": "BXhVH2VL4 (antibody, human IgG1, V domains shown)", "VH": "B1 VH", "VL": "B1 VL with F69D, Y70F", "notes": "Human IgG1 constant regions (IgG1 expression vectors); COS-7 supernatant; also called hVH2/hVL4"}, "B14": {"name": "BXhVH2VL5 (antibody, human IgG1, V domains shown)", "VH": "B1 VH", "VL": "B1 VL with F69D, G99Q", "notes": "Human IgG1 constant regions (IgG1 expression vectors); COS-7 supernatant; also called hVH2/hVL5"}, "B15": {"name": "BXhVH2VL6 (antibody, human IgG1, V domains shown)", "VH": "B1 VH", "VL": "B1 VL with Q1E, R18E", "notes": "Human IgG1 constant regions (IgG1 expression vectors); COS-7 supernatant; also called hVH2/hVL6"}, "B16": {"name": "BXhVH2VL8 (antibody, human IgG1, V domains shown)", "VH": "B1 VH", "VL": "B1 VL with R18E, P39S, Q41T", "notes": "Human IgG1 constant regions (IgG1 expression vectors); COS-7 supernatant; also called hVH2/hVL8"}, "B17": {"name": "BXhVH3VL1 (antibody, human IgG1, V domains shown)", "VH": "B1 VH with T40A, K98R", "VL": "B1 VL with Q1E, S42A, S59A, F69D, Y70F, A82F, D84V, G99Q", "notes": "Human IgG1 constant regions (IgG1 expression vectors); COS-7 supernatant; also called hVH3/hVL1"}, "B18": {"name": "BXhVH3VL2 (antibody, human IgG1, V domains shown)", "VH": "B1 VH with T40A, K98R", "VL": "B1 VL with Q1E, F69D, Y70F, G99Q", "notes": "Human IgG1 constant regions (IgG1 expression vectors); COS-7 supernatant; also called hVH3/hVL2"}, "B19": {"name": "BXhVH3VL3 (antibody, human IgG1, V domains shown)", "VH": "B1 VH with T40A, K98R", "VL": "B1 VL with A82F, D84V", "notes": "Human IgG1 constant regions (IgG1 expression vectors); also called hVH3/hVL3"}, "B20": {"name": "BXhVH3VL4 (antibody, human IgG1, V domains shown)", "VH": "B1 VH with T40A, K98R", "VL": "B1 VL with F69D, Y70F", "notes": "Human IgG1 constant regions (IgG1 expression vectors); COS-7 supernatant; also called hVH3/hVL4"}, "B21": {"name": "BXhVH3VL5 (antibody, human IgG1, V domains shown)", "VH": "B1 VH with T40A, K98R", "VL": "B1 VL with F69D, G99Q", "notes": "Human IgG1 constant regions (IgG1 expression vectors); COS-7 supernatant; also called hVH3/hVL5"}, "B22": {"name": "BXhVH3VL6 (antibody, human IgG1, V domains shown)", "VH": "B1 VH with T40A, K98R", "VL": "B1 VL with Q1E, R18E", "notes": "Human IgG1 constant regions (IgG1 expression vectors); COS-7 supernatant; also called hVH3/hVL6"}, "B23": {"name": "BXhVH3VL7 (antibody, human IgG1, V domains shown)", "VH": "B1 VH with T40A, K98R", "VL": "B1 VL", "notes": "Human IgG1 constant regions (IgG1 expression vectors); COS-7 supernatant; also called hVH3/hVL7"}, "B24": {"name": "BXhVH3VL8 (antibody, human IgG1, V domains shown)", "VH": "B1 VH with T40A, K98R", "VL": "B1 VL with R18E, P39S, Q41T", "notes": "Human IgG1 constant regions (IgG1 expression vectors); COS-7 supernatant; also called hVH3/hVL8"}, "B25": {"name": "ChimMNAC13 (antibody, V domains shown)", "VH": "EVKLMESGGGLVQPGGSLKLSCAASGFTFSTYTMSWARQTPEKRLEWVAYISKGGGSTYYPDTVKGRFTISRDNAKNTLYLQMSSLKSEDTALYYCARGAMYGNDFFYPMDYWGQQTSVTVSS", "VL": "DIVLSQSPAIMSASLGEEITLTCSASSSVSYMHWYQQKSGTSPKLLITTTSNLASGVPSRFSGSGSGTFYSLTISSVEAEDAADYYCHQWSSYPWTFGGGTKLEIK", "notes": "Corresponds to muMNACEP but has human constant regions instead of mouse constant regions; also called chimNINAC13; mVHEP/mVLEP"}, "B26": {"name": "HuMNACWOv (antibody, V domains shown)", "VH": "B1 VH with V37A, T40A, R44G, T91S, K98R, T118L", "VL": "DIVLTQSPSSLSASVGDRVTITCSASSSVSYMHWYQQKPGQAPKLLIYTTSNLASGVPSRFSGSGSGTDYTLTISSLQPEDVATYYCHQWSSYPWTFGGGTKVEIK", "notes": "Variant of HuMNACWO whose heavy chain CDR3 is replaced with that of muMNACEP; also called hVHWOv/hVLWO; HuVHWOv/HuVLWO"}, "B27": {"name": "HuMNACWO (antibody, V domains shown)", "VH": "B1 VH with V37A, T40A, R44G, T91S, K98R, Y102F, Y108F, Y112R, T118L", "VL": "B26 VL", "notes": "Prior art humanised antibody; also called humanised antibody MNAC13 disclosed in WO 05/061540; HuVHWO/HuVLWO"}}, "note": "Numbering of substitutions follows the chain as printed. No constants are given. Whether binding was seen depends on the method and setting. Some entries that bind do so weakly or less than the wild type.", "data": [{"target": "T1, human TrkA receptor on the cell surface (human, UniProt P04629 33-796)", "experiment": "flow cytometry on TF-1 cells", "values": [{"binder": "B1", "binding": "binds"}, {"binder": "B2", "binding": "binds"}, {"binder": "B3", "binding": "binds"}, {"binder": "B4", "binding": "binds"}, {"binder": "B5", "binding": "binds"}, {"binder": "B6", "binding": "binds"}, {"binder": "B7", "binding": "binds"}, {"binder": "B8", "binding": "binds"}, {"binder": "B9", "binding": "binds"}, {"binder": "B10", "binding": "binds"}, {"binder": "B11", "binding": "binds"}, {"binder": "B12", "binding": "binds"}, {"binder": "B13", "binding": "binds"}, {"binder": "B14", "binding": "binds"}, {"binder": "B15", "binding": "binds"}, {"binder": "B16", "binding": "binds"}, {"binder": "B17", "binding": "binds"}, {"binder": "B18", "binding": "binds"}, {"binder": "B19", "binding": "binds"}, {"binder": "B20", "binding": "binds"}, {"binder": "B21", "binding": "binds"}, {"binder": "B22", "binding": "binds"}, {"binder": "B23", "binding": "binds"}, {"binder": "B24", "binding": "binds"}]}, {"target": "TrkA-IgG (UniProt P04629)", "experiment": "ELISA, TrkA-IgG coated at 1 µg/ml, COS-7 supernatant at 5 ng/ml antibody, HRP-labelled secondary antibody, OD450/630 nm", "values": [{"binder": "B19", "binding": "binds"}]}, {"target": "T2, TrkA-IgG (UniProt P04629 33-423, limits assumed)", "T2 construct": "also called specific antigen TrkA-IgG; not shown: IgG part of the fusion", "experiment": "ELISA, TrkA-IgG coated at 1 µg/ml, COS-7 supernatant at 5 ng/ml antibody, HRP-labelled secondary antibody, OD450/630 nm", "values": [{"binder": "B25", "binding": "binds"}, {"binder": "B1", "binding": "binds"}, {"binder": "B2", "binding": "binds"}, {"binder": "B3", "binding": "binds"}, {"binder": "B4", "binding": "binds"}, {"binder": "B5", "binding": "binds"}, {"binder": "B6", "binding": "binds"}, {"binder": "B7", "binding": "binds"}, {"binder": "B8", "binding": "binds"}, {"binder": "B9", "binding": "binds"}, {"binder": "B10", "binding": "binds"}, {"binder": "B11", "binding": "binds"}, {"binder": "B12", "binding": "binds"}, {"binder": "B13", "binding": "binds"}, {"binder": "B14", "binding": "binds"}, {"binder": "B15", "binding": "binds"}, {"binder": "B16", "binding": "binds"}, {"binder": "B17", "binding": "binds"}, {"binder": "B18", "binding": "binds"}, {"binder": "B20", "binding": "binds"}, {"binder": "B21", "binding": "binds"}, {"binder": "B22", "binding": "binds"}, {"binder": "B23", "binding": "binds"}, {"binder": "B24", "binding": "binds"}, {"binder": "B26", "binding": "binds"}]}, {"target": "T2, TrkA-IgG", "experiment": "ELISA, TrkA-IgG coated at 1 µg/ml, antibody at 5 ng/ml, HRP-labelled secondary antibody, OD450/630 nm", "values": [{"binder": "B27", "binding": "binds"}]}, {"target": "T1, human TrkA receptor on the cell surface", "experiment": "flow cytometry on TF-1 cells (FIG. 4)", "values": [{"binder": "B19", "binding": "binds"}]}, {"target": "T1, human TrkA receptor on the cell surface", "experiment": "flow cytometry on TF-1 cells, PE-labelled secondary antibody, two experiments", "values": [{"binder": "B19", "binding": "binds"}]}, {"target": "T1, human TrkA receptor on the cell surface", "experiment": "flow cytometry on TF-1 cells, two separate experiments (FIG. 4)", "values": [{"binder": "B19", "binding": "binds"}]}]}
